Test results reported in publication PMC12077520.

Protein sequences, listed by entry. Tags and fused reporters are not part of them. Residues count along the entry.
UniProt Q15542: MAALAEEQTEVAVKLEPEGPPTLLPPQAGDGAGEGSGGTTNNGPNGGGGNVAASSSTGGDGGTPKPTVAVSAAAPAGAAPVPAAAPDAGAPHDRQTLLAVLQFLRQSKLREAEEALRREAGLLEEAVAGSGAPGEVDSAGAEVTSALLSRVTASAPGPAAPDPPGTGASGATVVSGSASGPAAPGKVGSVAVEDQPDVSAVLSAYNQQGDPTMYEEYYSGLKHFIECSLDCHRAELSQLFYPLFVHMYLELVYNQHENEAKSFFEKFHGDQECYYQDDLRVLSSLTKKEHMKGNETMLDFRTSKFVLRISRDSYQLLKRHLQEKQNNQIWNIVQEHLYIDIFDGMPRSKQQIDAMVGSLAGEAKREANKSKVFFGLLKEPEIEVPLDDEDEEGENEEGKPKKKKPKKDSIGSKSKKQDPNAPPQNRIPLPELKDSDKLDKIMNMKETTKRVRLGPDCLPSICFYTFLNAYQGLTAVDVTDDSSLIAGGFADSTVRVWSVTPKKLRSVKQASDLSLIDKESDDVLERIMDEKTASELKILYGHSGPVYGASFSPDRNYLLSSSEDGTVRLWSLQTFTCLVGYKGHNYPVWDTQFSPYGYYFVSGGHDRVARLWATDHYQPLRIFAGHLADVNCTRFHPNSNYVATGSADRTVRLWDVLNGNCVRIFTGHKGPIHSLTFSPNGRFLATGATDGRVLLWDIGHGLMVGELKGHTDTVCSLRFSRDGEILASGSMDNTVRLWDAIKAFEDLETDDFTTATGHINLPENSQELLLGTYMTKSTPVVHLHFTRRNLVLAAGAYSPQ
UniProt Q5VZL5: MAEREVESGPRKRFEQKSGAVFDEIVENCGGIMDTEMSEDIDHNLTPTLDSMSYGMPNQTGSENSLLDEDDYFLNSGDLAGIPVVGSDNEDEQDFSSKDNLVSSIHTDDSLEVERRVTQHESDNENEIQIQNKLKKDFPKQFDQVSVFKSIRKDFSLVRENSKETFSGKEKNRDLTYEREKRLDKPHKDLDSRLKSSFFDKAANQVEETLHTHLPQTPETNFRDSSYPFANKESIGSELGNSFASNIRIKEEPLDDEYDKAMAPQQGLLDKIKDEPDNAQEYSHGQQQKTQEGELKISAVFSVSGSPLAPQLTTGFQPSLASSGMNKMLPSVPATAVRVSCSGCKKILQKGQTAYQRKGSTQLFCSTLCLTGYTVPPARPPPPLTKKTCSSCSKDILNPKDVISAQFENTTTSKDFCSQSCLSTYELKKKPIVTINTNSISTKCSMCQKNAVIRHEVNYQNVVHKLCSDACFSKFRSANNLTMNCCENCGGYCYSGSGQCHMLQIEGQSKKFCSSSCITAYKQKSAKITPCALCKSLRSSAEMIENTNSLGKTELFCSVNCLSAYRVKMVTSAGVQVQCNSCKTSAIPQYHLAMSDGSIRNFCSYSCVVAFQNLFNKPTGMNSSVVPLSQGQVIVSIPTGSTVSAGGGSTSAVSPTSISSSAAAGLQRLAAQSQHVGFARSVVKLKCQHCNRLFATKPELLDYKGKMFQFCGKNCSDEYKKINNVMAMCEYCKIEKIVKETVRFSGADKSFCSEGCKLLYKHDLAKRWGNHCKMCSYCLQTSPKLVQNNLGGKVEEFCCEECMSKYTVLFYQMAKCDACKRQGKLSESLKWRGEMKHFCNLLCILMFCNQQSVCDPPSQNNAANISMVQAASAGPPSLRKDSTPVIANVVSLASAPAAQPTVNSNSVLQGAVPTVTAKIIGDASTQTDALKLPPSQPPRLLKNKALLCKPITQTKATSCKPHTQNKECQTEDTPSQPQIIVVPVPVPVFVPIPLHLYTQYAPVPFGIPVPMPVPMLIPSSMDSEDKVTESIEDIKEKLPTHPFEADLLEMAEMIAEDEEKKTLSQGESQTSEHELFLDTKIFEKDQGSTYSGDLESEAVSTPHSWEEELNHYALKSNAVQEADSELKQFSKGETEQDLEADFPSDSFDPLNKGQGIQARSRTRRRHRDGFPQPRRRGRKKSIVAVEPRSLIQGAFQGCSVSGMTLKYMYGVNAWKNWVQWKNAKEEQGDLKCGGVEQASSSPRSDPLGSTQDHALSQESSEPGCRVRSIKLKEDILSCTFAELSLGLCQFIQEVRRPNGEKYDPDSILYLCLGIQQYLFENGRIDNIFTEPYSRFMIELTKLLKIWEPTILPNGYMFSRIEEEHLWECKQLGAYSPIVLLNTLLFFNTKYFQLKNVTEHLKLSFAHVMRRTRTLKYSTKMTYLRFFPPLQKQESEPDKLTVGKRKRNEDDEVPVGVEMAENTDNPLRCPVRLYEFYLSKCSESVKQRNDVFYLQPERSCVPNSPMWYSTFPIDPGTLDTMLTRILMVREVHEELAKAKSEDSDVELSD
UniProt P49792: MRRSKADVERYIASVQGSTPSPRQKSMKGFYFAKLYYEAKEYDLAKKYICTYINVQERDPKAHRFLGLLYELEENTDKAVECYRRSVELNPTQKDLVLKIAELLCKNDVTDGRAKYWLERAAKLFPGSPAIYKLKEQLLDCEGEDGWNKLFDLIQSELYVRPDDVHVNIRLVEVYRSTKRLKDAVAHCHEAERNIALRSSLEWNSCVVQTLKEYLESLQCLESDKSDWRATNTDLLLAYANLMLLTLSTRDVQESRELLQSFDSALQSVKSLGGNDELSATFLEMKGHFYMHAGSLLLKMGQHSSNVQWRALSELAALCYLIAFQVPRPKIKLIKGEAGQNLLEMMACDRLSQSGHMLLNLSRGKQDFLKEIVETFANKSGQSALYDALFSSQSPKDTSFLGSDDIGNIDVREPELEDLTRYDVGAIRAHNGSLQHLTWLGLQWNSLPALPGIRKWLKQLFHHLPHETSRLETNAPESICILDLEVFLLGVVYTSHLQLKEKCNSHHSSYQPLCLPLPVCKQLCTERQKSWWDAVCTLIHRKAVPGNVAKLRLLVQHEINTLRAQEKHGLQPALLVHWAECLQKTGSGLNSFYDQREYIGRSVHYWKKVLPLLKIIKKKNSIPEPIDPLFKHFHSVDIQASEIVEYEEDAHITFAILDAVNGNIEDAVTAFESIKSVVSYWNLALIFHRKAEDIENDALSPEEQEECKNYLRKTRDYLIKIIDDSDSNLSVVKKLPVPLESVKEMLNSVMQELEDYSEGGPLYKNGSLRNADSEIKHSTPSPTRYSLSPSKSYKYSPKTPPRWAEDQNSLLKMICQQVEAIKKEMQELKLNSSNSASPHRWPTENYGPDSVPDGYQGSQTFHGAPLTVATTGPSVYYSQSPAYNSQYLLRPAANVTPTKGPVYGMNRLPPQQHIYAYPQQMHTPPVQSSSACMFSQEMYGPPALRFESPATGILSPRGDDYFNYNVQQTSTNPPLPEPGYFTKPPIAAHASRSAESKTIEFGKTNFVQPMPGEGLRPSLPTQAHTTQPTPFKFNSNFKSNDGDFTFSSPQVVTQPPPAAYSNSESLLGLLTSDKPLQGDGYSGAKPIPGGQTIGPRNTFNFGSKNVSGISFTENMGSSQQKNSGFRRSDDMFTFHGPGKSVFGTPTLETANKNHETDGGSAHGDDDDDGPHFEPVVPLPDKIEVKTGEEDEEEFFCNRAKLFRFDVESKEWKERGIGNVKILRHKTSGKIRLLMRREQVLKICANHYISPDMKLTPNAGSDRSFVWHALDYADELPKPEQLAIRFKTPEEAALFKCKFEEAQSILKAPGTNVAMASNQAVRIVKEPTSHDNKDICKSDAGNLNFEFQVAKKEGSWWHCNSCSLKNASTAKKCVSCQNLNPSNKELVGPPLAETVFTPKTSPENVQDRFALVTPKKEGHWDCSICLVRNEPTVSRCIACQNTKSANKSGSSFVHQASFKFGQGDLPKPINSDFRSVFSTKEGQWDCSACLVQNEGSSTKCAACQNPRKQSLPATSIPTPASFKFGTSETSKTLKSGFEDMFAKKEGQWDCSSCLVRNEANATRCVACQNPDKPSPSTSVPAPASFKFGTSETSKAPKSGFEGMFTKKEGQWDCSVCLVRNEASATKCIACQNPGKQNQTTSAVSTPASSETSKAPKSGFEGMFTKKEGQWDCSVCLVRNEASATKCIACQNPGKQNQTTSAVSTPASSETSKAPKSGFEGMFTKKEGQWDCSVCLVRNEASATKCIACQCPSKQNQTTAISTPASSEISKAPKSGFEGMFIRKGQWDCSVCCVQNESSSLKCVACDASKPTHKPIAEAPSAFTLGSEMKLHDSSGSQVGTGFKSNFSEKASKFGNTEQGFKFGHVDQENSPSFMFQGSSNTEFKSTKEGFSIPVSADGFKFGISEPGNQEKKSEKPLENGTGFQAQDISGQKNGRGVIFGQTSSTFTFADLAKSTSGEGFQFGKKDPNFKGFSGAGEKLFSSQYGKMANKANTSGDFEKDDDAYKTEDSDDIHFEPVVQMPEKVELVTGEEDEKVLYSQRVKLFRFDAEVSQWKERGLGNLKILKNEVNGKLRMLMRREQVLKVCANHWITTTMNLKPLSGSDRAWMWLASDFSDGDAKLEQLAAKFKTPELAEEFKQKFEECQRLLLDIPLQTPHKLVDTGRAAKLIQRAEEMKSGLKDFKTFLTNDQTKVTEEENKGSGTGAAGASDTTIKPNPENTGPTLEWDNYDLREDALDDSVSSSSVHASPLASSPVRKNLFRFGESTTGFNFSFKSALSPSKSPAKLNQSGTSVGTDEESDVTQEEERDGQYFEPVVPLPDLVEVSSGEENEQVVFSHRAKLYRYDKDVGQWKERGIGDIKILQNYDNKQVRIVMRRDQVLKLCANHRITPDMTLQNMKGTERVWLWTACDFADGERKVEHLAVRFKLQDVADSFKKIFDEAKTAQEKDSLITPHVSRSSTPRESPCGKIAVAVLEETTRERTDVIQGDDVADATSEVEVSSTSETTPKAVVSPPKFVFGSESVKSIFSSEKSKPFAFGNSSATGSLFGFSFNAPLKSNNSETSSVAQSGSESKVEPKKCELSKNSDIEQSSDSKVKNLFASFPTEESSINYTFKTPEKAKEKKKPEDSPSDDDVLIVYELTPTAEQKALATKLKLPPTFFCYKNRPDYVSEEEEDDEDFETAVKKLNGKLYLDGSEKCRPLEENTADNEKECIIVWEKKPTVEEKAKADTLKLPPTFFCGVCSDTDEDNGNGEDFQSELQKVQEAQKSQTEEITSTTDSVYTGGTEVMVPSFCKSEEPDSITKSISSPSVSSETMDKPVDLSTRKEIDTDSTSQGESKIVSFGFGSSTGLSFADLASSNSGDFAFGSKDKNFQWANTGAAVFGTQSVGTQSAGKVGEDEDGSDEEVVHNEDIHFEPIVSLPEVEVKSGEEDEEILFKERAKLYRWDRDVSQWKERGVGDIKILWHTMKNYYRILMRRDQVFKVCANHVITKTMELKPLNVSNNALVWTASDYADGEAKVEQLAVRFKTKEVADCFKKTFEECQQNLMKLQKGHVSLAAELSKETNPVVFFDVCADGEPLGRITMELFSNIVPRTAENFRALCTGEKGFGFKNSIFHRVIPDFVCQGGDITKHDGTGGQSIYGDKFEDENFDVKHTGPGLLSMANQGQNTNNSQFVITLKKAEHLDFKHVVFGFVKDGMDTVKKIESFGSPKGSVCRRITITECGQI
UniProt Q15843, residues 1-76: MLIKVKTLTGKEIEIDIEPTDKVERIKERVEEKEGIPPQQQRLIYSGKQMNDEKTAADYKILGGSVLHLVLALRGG
UniProt Q9H4L4: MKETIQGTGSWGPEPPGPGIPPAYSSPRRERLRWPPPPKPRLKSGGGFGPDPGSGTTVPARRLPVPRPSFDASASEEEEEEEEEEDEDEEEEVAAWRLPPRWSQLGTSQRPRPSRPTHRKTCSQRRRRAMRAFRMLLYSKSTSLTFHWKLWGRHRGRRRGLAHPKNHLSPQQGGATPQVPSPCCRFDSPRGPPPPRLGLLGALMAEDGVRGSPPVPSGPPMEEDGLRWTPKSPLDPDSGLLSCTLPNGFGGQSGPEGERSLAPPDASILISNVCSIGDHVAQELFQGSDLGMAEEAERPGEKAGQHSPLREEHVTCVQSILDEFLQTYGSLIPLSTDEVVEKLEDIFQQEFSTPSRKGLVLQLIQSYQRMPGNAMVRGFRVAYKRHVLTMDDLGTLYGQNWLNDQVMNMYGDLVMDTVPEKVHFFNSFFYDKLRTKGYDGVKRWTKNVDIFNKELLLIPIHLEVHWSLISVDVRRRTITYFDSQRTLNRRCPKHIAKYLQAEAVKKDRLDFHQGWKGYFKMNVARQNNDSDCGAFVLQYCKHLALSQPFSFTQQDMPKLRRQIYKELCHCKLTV

Columns and labels:
Experiment in all cases: affinity purification with mass spectrometry; 100 ug His10-SUMO2/3 WT, IKR or QFI on Ni-NTA beads, incubated with whole-cell HeLa lysate 2 h at 4°C in 50 mM tris pH 7.5, 150 mM NaCl, 0.5% NP-40, 50 mM imidazole; eluted with 8 M urea; LC-MS/MS, label-free quantification against uncoated beads (t test, FDR 0.05), n = 4; only the target purified
[1] = target: T1, His10-SUMO2 IKR (I33A-K34A-R35A) (human (from the printed UniProt accession)) (UniProt P55854)
[2] = target: T2, His10-SUMO2 QFI (Q30A-F31A-I33A) (human (from the printed UniProt accession)) (UniProt P55854)
[3] = target: T1, His10-SUMO2 IKR (I33A-K34A-R35A) (human); remark: listed apart in the source
[4] = target: T2, His10-SUMO2 QFI (Q30A-F31A-I33A) (human); remark: listed apart in the source

Molecule: TAF5 (from UniProt Q15542 1-800)
- binding [1]: binds
- binding [2]: binds

Molecule: ZMYM4 (from UniProt Q5VZL5 1-1548)
- binding [1]: no binding
- binding [2]: no binding

Molecule: RANBP2 (from UniProt P49792 1-3224)
- binding [1]: no binding
- binding [2]: no binding

Molecule: NEDD8 (from UniProt Q15843 1-76)
- binding [1]: no binding
- binding [2]: no binding

Molecule: SENP3 (from UniProt Q9H4L4 1-574) (enzyme)
- binding [1]: binds
- binding [2]: no binding

B1: SAE1 (enzyme, UniProt Q9UBE0 1-346)
chain: MVEKEEAGGGISEEEAAQYDRQIRLWGLEAQKRLRASRVLLVGLKGLGAEIAKNLILAGVKGLTMLDHEQVTPEDPGAQFLIRTGSVGRNRAEASLERAQNLNPMVDVKVDTEDIEKKPESFFTQFDAVCLTCCSRDVIVKVDQICHKNSIKFFTGDVFGYHGYTFANLGEHEFVEEKTKVAKVSQGVEDGPDTKRAKLDSSETTMVKKKVVFCPVKEALEVDWSSEKAKAALKRTTSDYFLLQVLLKFRTDKGRDPSSDTYEEDSELLLQIRNDVLDSLGISPDLLPEDFVRYCFSEMAPVCAVVGGILAQEIVKALSQRDPPHNNFFFFDGMKGNGIVECLGPK
- binding [3]: binds
- binding [4]: binds

B2: PIAS3 (protein, UniProt Q9Y6X2 1-628)
chain: MAELGELKHMVMSFRVSELQVLLGFAGRNKSGRKHELLAKALHLLKSSCAPSVQMKIKELYRRRFPRKTLGPSDLSLLSLPPGTSPVGSPGPLAPIPPTLLAPGTLLGPKREVDMHPPLPQPVHPDVTMKPLPFYEVYGELIRPTTLASTSSQRFEEAHFTFALTPQQVQQILTSREVLPGAKCDYTIQVQLRFCLCETSCPQEDYFPPNLFVKVNGKLCPLPGYLPPTKNGAEPKRPSRPINITPLARLSATVPNTIVVNWSSEFGRNYSLSVYLVRQLTAGTLLQKLRAKGIRNPDHSRALIKEKLTADPDSEVATTSLRVSLMCPLGKMRLTVPCRALTCAHLQSFDAALYLQMNEKKPTWTCPVCDKKAPYESLIIDGLFMEILSSCSDCDEIQFMEDGSWCPMKPKKEASEVCPPPGYGLDGLQYSPVQGGDPSENKKKVEVIDLTIESSSDEEDLPPTKKHCSVTSAAIPALPGSKGVLTSGHQPSSVLRSPAMGTLGGDFLSSLPLHEYPPAFPLGADIQGLDLFSFLQTESQHYGPSVITSLDEQDALGHFFQYRGTPSHFLGPLAPTLGSSHCSATPAPPPGRVSSIVAPGGALREGHGGPLPSGPSLTGCRSDIISLD
- binding [3]: no binding
- binding [4]: no binding

B3: PIAS4 (protein, UniProt Q8N2W9 1-510)
chain: MAAELVEAKNMVMSFRVSDLQMLLGFVGRSKSGLKHELVTRALQLVQFDCSPELFKKIKELYETRYAKKNSEPAPQPHRPLDPLTMHSTYDRAGAVPRTPLAGPNIDYPVLYGKYLNGLGRLPAKTLKPEVRLVKLPFFNMLDELLKPTELVPQNNEKLQESPCIFALTPRQVELIRNSRELQPGVKAVQVVLRICYSDTSCPQEDQYPPNIAVKVNHSYCSVPGYYPSNKPGVEPKRPCRPINLTHLMYLSSATNRITVTWGNYGKSYSVALYLVRQLTSSELLQRLKTIGVKHPELCKALVKEKLRLDPDSEIATTGVRVSLICPLVKMRLSVPCRAETCAHLQCFDAVFYLQMNEKKPTWMCPVCDKPAPYDQLIIDGLLSKILSECEDADEIEYLVDGSWCPIRAEKERSCSPQGAILVLGPSDANGLLPAPSVNGSGALGSTGGGGPVGSMENGKPGADVVDLTLDSSSSSEDEEEEEEEEEDEDEEGPRPKRRCPFQKGLVPAC
- binding [3]: no binding
- binding [4]: no binding

B4: TOPORS (protein, UniProt Q9NS56 1-1045)
chain: MGSQPPLGSPLSREEGEAPPPAPASEGRRRSRRVRLRGSCRHRPSFLGCRELAASAPARPAPASSEIMASAAKEFKMDNFSPKAGTSKLQQTVPADASPDSKCPICLDRFDNVSYLDRCLHKFCFRCVQEWSKNKAECPLCKQPFDSIFHSVRAEDDFKEYVLRPSYNGSFVTPDRRFRYRTTLTRERNASVYSPSGPVNRRTTTPPDSGVLFEGLGISTRPRDVEIPQFMRQIAVRRPTTADERSLRKIQEQDIINFRRTLYRAGARVRNIEDGGRYRDISAEFFRRNPACLHRLVPWLKRELTVLFGAHGSLVNIVQHIIMSNVTRYDLESQAFVSDLRPFLLNRTEHFIHEFISFARSPFNMAAFDQHANYDCPAPSYEEGSHSDSSVITISPDEAETQELDINVATVSQAPWDDETPGPSYSSSEQVHVTMSSLLNTSDSSDEELVTGGATSQIQGVQTNDDLNNDSDDSSDNCVIVGFVKPLAERTPELVELSSDSEDLGSYEKMETVKTQEQEQSYSSGDSDVSRCSSPHSVLGKDEQINKGHCDSSTRIKSKKEEKRSTSLSSPRNLNSSVRGDRVYSPYNHRHRKRGRSRSSDSRSQSRSGHDQKNHRKHHGKKRMKSKRSRSRESSRPRGRRDKKRSRTRDSSWSRRSQTLSLSSESTSRSRSRSSDHGKRRSRSRNRDRYYLRNNYGSRYKWEYTYYSRNKDRDGYESSYRRRTLSRAHYSRQSSSPEFRVQSFSERTNARKKNNHSERKYYYYERHRSRSLSSNRSRTASTGTDRVRNEKPGGKRKYKTRHLEGTNEVAQPSREFASKAKDSHYQKSSSKLDGNYKNESDTFSDSRSSDRETKHKRRKRKTRSLSVEIVYEGKATDTTKHHKKKKKKHKKKHKKHHGDNASRSPVVITIDSDSDKDSEVKEDTECDNSGPQDPLQNEFLAPSLEPFETKDVVTIEAEFGVLDKECDIATLSNNLNNANKTVDNIPPLAASVEQTLDVREESTFVSDLENQPSNIVSLQTEPSRQLPSPRTSLMSVCLGRDCDMS
- binding [3]: no binding
- binding [4]: no binding

B5: RNF111 (protein, UniProt Q6ZNA4 1-994)
chain: MSQWTPEYNELYTLKVDMKSEIPSDAPKTQESLKGILLHPEPIGAAKSFPAGVEMINSKVGNEFSHLCDDSQKQEKEMNGNQQEQEKSLVVRKKRKSQQAGPSYVQNCVKENQGILGLRQHLGTPSDEDNDSSFSDCLSSPSSSLHFGDSDTVTSDEDKEVSVRHSQTILNAKSRSHSARSHKWPRTETESVSGLLMKRPCLHGSSLRRLPCRKRFVKNNSSQRTQKQKERILMQRKKREVLARRKYALLPSSSSSSENDLSSESSSSSSTEGEEDLFVSASENHQNNPAVPSGSIDEDVVVIEASSTPQVTANEEINVTSTDSEVEIVTVGESYRSRSTLGHSRSHWSQGSSSHASRPQEPRNRSRISTVIQPLRQNAAEVVDLTVDEDEPTVVPTTSARMESQATSASINNSNPSTSEQASDTASAVTSSQPSTVSETSATLTSNSTTGTSIGDDSRRTTSSAVTETGPPAMPRLPSCCPQHSPCGGSSQNHHALGHPHTSCFQQHGHHFQHHHHHHHTPHPAVPVSPSFSDPACPVERPPQVQAPCGANSSSGTSYHEQQALPVDLSNSGIRSHGSGSFHGASAFDPCCPVSSSRAAIFGHQAAAAAPSQPLSSIDGYGSSMVAQPQPQPPPQPSLSSCRHYMPPPYASLTRPLHHQASACPHSHGNPPPQTQPPPQVDYVIPHPVHAFHSQISSHATSHPVAPPPPTHLASTAAPIPQHLPPTHQPISHHIPATAPPAQRLHPHEVMQRMEVQRRRMMQHPTRAHERPPPHPHRMHPNYGHGHHIHVPQTMSSHPRQAPERSAWELGIEAGVTAATYTPGALHPHLAHYHAPPRLHHLQLGALPLMVPDMAGYPHIRYISSGLDGTSFRGPFRGNFEELIHLEERLGNVNRGASQGTIERCTYPHKYKKVTTDWFSQRKLHCKQDGEEGTEEDTEEKCTICLSILEEGEDVRRLPCMHLFHQVCVDQWLITNKKCPICRVDIEAQLPSES
- binding [3]: no binding
- binding [4]: no binding

B6: NFATC2IP (protein, UniProt Q8NCF5 1-419)
chain: MAEPVGKRGRWSGGSGAGRGGRGGWGGRGRRPRAQRSPSRGTLDVVSVDLVTDSDEEILEVATARGAADEVEVEPPEPPGPVASRDNSNSDSEGEDRRPAGPPREPVRRRRRLVLDPGEAPLVPVYSGKVKSSLRLIPDDLSLLKLYPPGDEEEAELADSSGLYHEGSPSPGSPWKTKLRTKDKEEKKKTEFLDLDNSPLSPPSPRTKSRTHTRALKKLSEVNKRLQDLRSCLSPKPPQGQEQQGQEDEVVLVEGPTLPETPRLFPLKIRCRADLVRLPLRMSEPLQSVVDHMATHLGVSPSRILLLFGETELSPTATPRTLKLGVADIIDCVVLTSSPEATETSQQLQLRVQGKEKHQTLEVSLSRDSPLKTLMSHYEEAMGLSGRKLSFFFDGTKLSGRELPADLGMESGDLIEVWG
- binding [3]: no binding
- binding [4]: no binding

B7: ZMYM5 (protein, UniProt Q9UJ78 1-669)
chain: MEKCSVGGLELTEQTPALLGNMAMATSLMDIGDSFGHPACPLVSRSRNSPVEDDDDDDDVVFIESIQPPSISAPAIADQRNFIFASSKNEKPQGNYSVIPPSSRDLASQKGNISETIVIDDEEDIETNGGAEKKSSCFIEWGLPGTKNKTNDLDFSTSSLSRSKTKTGVRPFNPGRMNVAGDLFQNGEFATHHSPDSWISQSASFPSNQKQPGVDSLSPVALLRKQNFQPTAQQQLTKPAKITCANCKKPLQKGQTAYQRKGSAHLFCSTTCLSSFSHKRTQNTRSIICKKDASTKKANVILPVESSKSFQEFYSTSCLSPCENNWNLKKGVFNKSRCTICSKLAEIRHEVSVNNVTHKLCSNHCFNKYRLANGLIMNCCEHCGEYMPSKSTGNNILVIGGQQKRFCCQSCINEYKQMMETKSKKLTASENRKRNAFREENEKQLYGSSNTLLKKIEGIPEKKEKTSQLQLSVECGTDTLLIQENVNLPPSSTSTIADTFQEQLEEKNFEDSIVPVVLSADPGTWPRILNIKQRDTLVENVPPQVRNFNFPKDNTGRKFSETYYTRILPNGEKTTRSWLLYSTSKDSVFCLYCKLFGEGKNQLKNENGCKDWQHLSHILSKHEESEMHVNNSVKYSKLKSDLKKNKAIDAAEHRLYENEKNDGVLLLYT
- binding [3]: no binding
- binding [4]: no binding

Where two headings read alike, the source gives them in different places. These are yes or no findings as the source states them, for the method shown. Binding seen in cells or lysates may run through a third protein. Here binding means that the protein was enriched with, or labelled near, the bait; the list need not be complete. No binding means not detected with the bait.
